Source: PubChem BioAssay AID2417 (National Center for Advancing Translational Sciences (NCATS), 2010)
About 4,300 (3.1%) of roughly 140,000 compounds were called active. Inconclusive results, whose numbers are uncertain, are shown with a selection of clear calls.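 Rule for the calls: active = readout at or below -70, meaning at least 70% loss of cells showing the perinucleolar compartment, a nuclear body marking cancer cells; inconclusive = readout between -30 and a set limit; inactive = the rest.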

Test: High Content Assay for Compounds that inhibit the Assembly of the Perinucleolar Compartment;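 note: plate controls were DMSO wells for no effect and camptothecin positive control wells for full effect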
Details: PC3M PTB-GFP, PNC prevalence imaging, 16 h; at 10 µM; stronger effect = lower value
In short: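 Compounds are pinned in duplicate onto adhered PC3M cells stably expressing GFP-tagged PTB and incubated 16 h at 37 C. Cells are then fixed, nuclei stained with Hoechst, and PNC-positive cells counted.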

Q: Which activity change (PNC), negative = inhibition does the source give for `Cc1c(C(=O)NCc2ccccn2)oc2ccc(S(=O)(=O)N3CCOCC3)cc12` here?
A: inconclusive: -62.4%

Q: Which activity change (PNC), negative = inhibition does the source give for `COc1cc(Br)cc(CN2CCN(C/C=C/c3ccccc3)CC2)c1O` here?
A: inconclusive: -46.3%

Q: For `Cc1cccc(N(C(=O)CCC(=O)Nc2cccnc2)C(C(=O)NC2CCCC2)c2ccncc2)c1` (stereo unspecified), which activity change (PNC), negative = inhibition is on record?
A: inconclusive: -59.2%

Q: With `CC(=O)NC(c1ccc(F)cc1)c1cccnc1` (stereo unspecified) as the compound, how does the activity change (PNC), negative = inhibition read?
A: inconclusive: -48.5%

Q: For `COc1cccc(N(C(=O)c2ccco2)C(C(=O)NC2CCCC2)c2cccnc2)c1` (stereo unspecified), which activity change (PNC), negative = inhibition is on record?
A: inconclusive: -49.4%

Q: For `CS(=O)(=O)NCCCc1ccccc1`, which activity change (PNC), negative = inhibition is on record?
A: inconclusive: -32.1%

Q: For `CCCN(CCC)C(=O)c1c(NC(=O)CC)sc2c1CCCCC2`, which activity change (PNC), negative = inhibition is on record?
A: inconclusive: -43.4%

Q: For `O=C(N1CCN(c2ccc(F)cc2)CC1)C1(c2cccs2)CCOCC1`, which activity change (PNC), negative = inhibition is on record?
A: inactive: 2.2%

Q: Which activity change (PNC), negative = inhibition does the source give for `CCOC(=O)c1c(NC(=S)NCCc2ccccc2)sc2c1CC(C(C)C)OC2` (stereo unspecified) here?
A: inconclusive: -61.1%

Q: Which activity change (PNC), negative = inhibition does the source give for `CCOc1ccc(C2Nc3ccc4ccccc4c3-c3c2c(=O)oc2ccccc32)cc1` (stereo unspecified) here?
A: inactive: 20.5%

Q: With `O=C(CSc1nnnn1-c1ccc2c(c1)OCCO2)OC1CCCCC1` as the compound, how does the activity change (PNC), negative = inhibition read?
A: inactive: -8.62%

Q: Which activity change (PNC), negative = inhibition does the source give for `CNc1ncc(Cc2ccccc2)s1` here?
A: inconclusive: -56.7%

Q: For `COC(=O)c1c(NS(=O)(=O)c2cccs2)sc2c1CCCC2`, which activity change (PNC), negative = inhibition is on record?
A: inconclusive: -46%

Q: With `COc1ccc(-c2[nH]ncc2/C=N\NS(=O)(=O)c2ccc(Cl)cc2)cc1` as the compound, how does the activity change (PNC), negative = inhibition read?
A: inconclusive: -65.7%

Q: Which activity change (PNC), negative = inhibition does the source give for `CC(=O)NC(Cc1c[nH]c2ccccc12)C(=O)OCC(=O)Nc1cc(C)on1` (stereo unspecified) here?
A: active: -92.2%

Q: With `O=C(CSCc1cccc(Cl)c1)Nc1ccccc1-c1ccccc1` as the compound, how does the activity change (PNC), negative = inhibition read?
A: inactive: 7.03%

Q: Which activity change (PNC), negative = inhibition does the source give for `Cc1ccc(NC2=CC(=O)C(=O)c3ccccc32)cc1` here?
A: inactive: 10.7%

Q: Which activity change (PNC), negative = inhibition does the source give for `CCOc1ccc(C(=S)N2CCOCC2)cc1OCC` here?
A: inconclusive: -36.9%

Q: For `COc1cc(OC)nc(NC(=O)CSc2nc3ccccc3o2)n1`, which activity change (PNC), negative = inhibition is on record?
A: inconclusive: -64.6%

Q: With `c1ccc(C2(CNc3ccccn3)CCCC2)cc1` as the compound, how does the activity change (PNC), negative = inhibition read?
A: inconclusive: -32.5%

Q: Which activity change (PNC), negative = inhibition does the source give for `CCOC(=O)c1nc2nc(C)cc(=O)n2[nH]1` here?
A: inconclusive: -61%

Q: Which activity change (PNC), negative = inhibition does the source give for `CN1c2ccccc2Oc2c(c(=O)n(C)c(=O)n2C)C1c1cccc([N+](=O)[O-])c1` (stereo unspecified) here?
A: inconclusive: -46.3%

Q: For `Cc1ccc(NC(=O)NC(=O)COc2ccc(Cl)cc2Cl)c(C)c1`, which activity change (PNC), negative = inhibition is on record?
A: inconclusive: -37.7%

Q: With `CC(C)N1CCc2c(sc(N)c2C#N)C1` as the compound, how does the activity change (PNC), negative = inhibition read?
A: inconclusive: -30.5%

Q: For `Cc1ccc(S(=O)(=O)NC(=O)COc2ccccc2C(N)=O)cc1`, which activity change (PNC), negative = inhibition is on record?
A: inconclusive: -33.1%

Q: For `CCOC(=O)c1c(NC(=O)COC(=O)c2nc(Cl)ccc2Cl)sc2c1CCC2`, which activity change (PNC), negative = inhibition is on record?
A: inconclusive: -34.8%
